PubChem BioAssay AID1224826 – NIAID | 2016
Shown is an unselected part of about 17,000 reagents. About 1,110 of all reagents (6.6%) count as active. 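Active means lowered or raised reporter signal; replicate intensities are raw and not normalised per plate.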 A number with no mark means an inactive call. Further read-outs or replicates are left out here.

Screen: 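Knock-downs that raise or lower Tnf reporter signal after endotoxin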 (primary screen)
Cells: RAW264.7 G9 macrophages from mouse bearing reporters for p65 (GFP) and the Tnf promoter (mCherry)
Reagents: siRNA pool against mouse genes, 100 nM
Time to read-out: 16 h of LPS stimulation, after 2 days of siRNA transfection
Challenge: bacterial lipopolysaccharide (Salmonella minnesota R595), 10 ng/ml
Read-out: 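Imaged Tnf reporter mCherry in nuclei, minus background, normalised per plate to the median and expressed as robust z-scores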
Direction: Tnf reporter robust z-score: higher = stronger Tnf promoter reporter signal after LPS
Hit rule: 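a well counts as active at a score of -1.3 or below (Tlr4 knock-down control median) or above 3 (raised signal); controls and wells holding fewer than 50 cells are excluded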
Calls: active = Tnf reporter clearly lowered or raised; inactive = no clear change in Tnf reporter

Fhip1b
- fewer than 50 cells in well: fewer than 50 cells per well; well left out of calls

Wdfy2
- Tnf reporter robust z-score: -0.06
- fewer than 50 cells in well: enough cells in well

Anxa5
- Tnf reporter robust z-score: -0.53
- fewer than 50 cells in well: enough cells in well

Slc22a13
- Tnf reporter robust z-score: 3.68 (active)
- fewer than 50 cells in well: enough cells in well

Commd4
- Tnf reporter robust z-score: -0.24
- fewer than 50 cells in well: enough cells in well

Gins4
- Tnf reporter robust z-score: 2
- fewer than 50 cells in well: enough cells in well

Nelfa
- Tnf reporter robust z-score: 0.22
- fewer than 50 cells in well: enough cells in well

Hits, among the entries above:
Slc22a13
- Tnf reporter robust z-score: 3.68 (active)
- fewer than 50 cells in well: enough cells in well

More entries follow.
Mus81
- Tnf reporter robust z-score: -0.17
- fewer than 50 cells in well: enough cells in well

Or2r11
- fewer than 50 cells in well: fewer than 50 cells per well; well left out of calls

Mpzl1
- Tnf reporter robust z-score: 0.48
- fewer than 50 cells in well: enough cells in well

Rhno1
- Tnf reporter robust z-score: -0.93
- fewer than 50 cells in well: enough cells in well

Apol7c
- Tnf reporter robust z-score: -1.09
- fewer than 50 cells in well: enough cells in well

Mageb18
- Tnf reporter robust z-score: 0.11
- fewer than 50 cells in well: enough cells in well

Smarca2
- Tnf reporter robust z-score: 0.74
- fewer than 50 cells in well: enough cells in well
